Measurements from PubChem BioAssay AID743255 (National Center for Advancing Translational Sciences (NCATS), 2014).
Out of some 390,000 compounds screened, about 910 (0.23%) were called active. Inconclusive results, whose numbers are uncertain, are shown with a selection of clear calls. The call rests on the fitted dose curve; in most records, active means well fitted inhibition curve with a large enough effect; inconclusive means small, poorly fitted or top-dose-only effect; inactive means no such curve, though single readings can be large or run the other way. A potency beside an inconclusive call is a rough fit, not a confirmed value.

Amino acid sequences for entries named in this document (tags omitted). A change or cut given only in a name is not applied to a line headed by its entry.
UniProt O94782: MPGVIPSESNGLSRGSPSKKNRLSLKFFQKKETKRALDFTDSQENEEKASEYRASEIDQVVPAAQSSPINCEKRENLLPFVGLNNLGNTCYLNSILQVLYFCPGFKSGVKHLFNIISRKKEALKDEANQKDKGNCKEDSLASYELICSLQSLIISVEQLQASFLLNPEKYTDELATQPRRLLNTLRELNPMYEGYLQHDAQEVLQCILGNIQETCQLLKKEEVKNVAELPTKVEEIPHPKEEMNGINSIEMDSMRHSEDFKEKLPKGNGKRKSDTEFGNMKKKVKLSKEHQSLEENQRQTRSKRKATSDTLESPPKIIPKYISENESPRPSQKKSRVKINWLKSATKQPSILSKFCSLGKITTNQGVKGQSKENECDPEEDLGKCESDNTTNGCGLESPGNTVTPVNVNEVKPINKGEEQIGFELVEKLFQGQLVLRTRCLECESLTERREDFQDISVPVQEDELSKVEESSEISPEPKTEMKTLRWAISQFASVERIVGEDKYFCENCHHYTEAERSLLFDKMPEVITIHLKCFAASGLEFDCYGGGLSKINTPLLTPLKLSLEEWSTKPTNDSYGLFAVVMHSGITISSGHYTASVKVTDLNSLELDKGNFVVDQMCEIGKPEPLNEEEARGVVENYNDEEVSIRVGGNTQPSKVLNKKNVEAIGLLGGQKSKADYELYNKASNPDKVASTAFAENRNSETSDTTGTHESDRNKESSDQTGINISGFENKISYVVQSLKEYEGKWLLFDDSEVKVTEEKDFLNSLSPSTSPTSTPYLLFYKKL

target: Ubiquitin carboxyl-terminal hydrolase 1 (Homo sapiens) (UniProt O94782); assay: Inhibitors of USP1/UAF1: Primary Screen; settings: recombinant USP1/UAF1, Ub-Rhodamine cleavage fluorescence; series mostly up to 57.1 µM; further: nearly all actives have a fitted effect of over 60% in size
Outline: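 1 nM enzyme complex + cpd, 15 min RT; start with Ub-Rho 150nM final; kinetic fluorescence ex 480/em 540, 6 reads q60 s. Buffer 50mM HEPES pH 7.8, 0.5mM EDTA, 0.1 mg/ml BSA, 1mM TCEP, 0.01% Tween-20.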
Potency means the concentration at half of the fitted maximal effect.

SMILES	Potency
N#Cc1sc2nc(-c3cccs3)cc(-c3ccccc3)c2c1N	inconclusive: 31.6 µM [inhibitor, partial curve]
Nc1nc(NCc2ccco2)nc(N2CCCC2)c1[N+](=O)[O-]	inconclusive: 4.47 µM [inhibitor, partial curve]
CCS(=O)(=O)Nc1cc(-c2cn3ccc(C)cc3n2)ccc1C	inactive
CC(C)(C)OC(=O)N1CCC(c2c(C(=O)N3CCc4ccccc4C3)cnn2-c2ccc(Cl)cc2)CC1	inconclusive: 7.08 µM [inhibitor, single point]
COCCNc1nnc(SCC(=O)NNC(=O)c2ccccc2)s1	inactive
NCCCC[C@H](NC(=O)C1CCNCC1)c1nnc([C@@H](N)Cc2ccc(O)cc2)o1	inconclusive: 0.0891 µM [inhibitor, full curve, poor fit]
Cc1cc(NC(c2nnc(-c3ccccc3)o2)c2ccccc2F)ccc1Br (stereo not drawn)	inconclusive: 1.78 µM [inhibitor, full curve, poor fit]
COc1cccc(CC(=O)Nc2ccc3nc(N4CCC(C)CC4)cc(C)c3c2)c1	inconclusive: 39.8 µM [inhibitor, partial curve, poor fit]
Cc1noc(C)c1S(=O)(=O)Nc1ccc(C(=O)Nc2ccc(OC(F)(F)F)cc2)cc1	inconclusive: 31.6 µM [inhibitor, partial curve]
Brc1ccc(C2=CC(c3ccco3)n3ncnc3N2)cc1 (stereo not drawn)	active: 31.6 µM
Cc1ccc(S(=O)(=O)N2[C@@H](c3ccc(C(C)(C)C)cc3)C(C(=O)O)=CC[C@H]2c2ccc(Cl)cc2)cc1	inconclusive: 50.1 µM [inhibitor, partial curve, poor fit]
CCN1CCC(NCCc2ccc(F)cc2)CC1	inactive
CC1(C)S[C@@H]2[C@H](NC(=O)[C@H](N)c3ccccc3)C(=O)N2[C@H]1C(=O)O	inconclusive: 28.2 µM [inhibitor, single point]
CCN(CC)c1ccc2c(-c3ccc(S(=O)(=O)O)cc3S(=O)(=O)[O-])c3ccc(=[N+](CC)CC)cc-3oc2c1	active: 31.6 µM
O=C(/C=C(O)/C=C/c1ccc(O)cc1)/C=C/c1ccc(O)cc1	active: 28.2 µM
CCc1ccc2c(c1)cc(CN(C(=S)Nc1ccc(Cl)cc1)C1CC1)c1nnnn12	inconclusive: 28.2 µM [inhibitor, partial curve]
COc1ccc(N=Cc2nc(-c3ccco3)oc2O)cc1	inactive
Cc1nnsc1S(=O)c1ccc(Cl)cc1 (stereo not drawn)	inactive
c1cc(CNc2ccc3c(c2)OCO3)ccn1	inconclusive: 35.5 µM [inhibitor, partial curve]
CC(=O)c1cccc(NC(=O)Cn2c(=O)c(CNc3ccc(C)cc3)cc3cc4c(cc32)OCCO4)c1	inconclusive: 31.6 µM [inhibitor, partial curve]
COc1ccccc1C(=O)Nc1ccc2nc(N3CCC(C)CC3)cc(C)c2c1	inconclusive: 22.4 µM [inhibitor, single point]

Structural class: those above containing fluorine (3)
SMILES	Potency
Cc1cc(NC(c2nnc(-c3ccccc3)o2)c2ccccc2F)ccc1Br (stereo not drawn)	inconclusive: 1.78 µM [inhibitor, full curve, poor fit]
Cc1noc(C)c1S(=O)(=O)Nc1ccc(C(=O)Nc2ccc(OC(F)(F)F)cc2)cc1	inconclusive: 31.6 µM [inhibitor, partial curve]
CCN1CCC(NCCc2ccc(F)cc2)CC1	inactive

In the list so far, these have bromine:
SMILES	Potency
Cc1cc(NC(c2nnc(-c3ccccc3)o2)c2ccccc2F)ccc1Br (stereo not drawn)	inconclusive: 1.78 µM [inhibitor, full curve, poor fit]
Brc1ccc(C2=CC(c3ccco3)n3ncnc3N2)cc1 (stereo not drawn)	active: 31.6 µM

(list continues)

SMILES	Potency
O=C(c1ccccc1)c1coc2c1C(=O)c1ccccc1C2=O	inconclusive: 28.2 µM [inhibitor, partial curve]
COCCN(C(=O)CSc1nnc(-c2ccco2)n1C)c1c(N)n(CC(C)C)c(=O)[nH]c1=O	inactive
Cc1c(-c2cccc(Cl)c2)nc2ccccc2c1C(=O)OC/C(O)=C(\C#N)c1nc2ccccc2[nH]1	inconclusive: 0.794 µM [inhibitor, full curve, poor fit]
O=C(CSc1nnc2ccc(-c3ccccn3)nn12)NCCc1ccccc1	inconclusive: 0.355 µM [inhibitor, full curve, poor fit]
O=S(=O)(c1ccc(Br)cc1)c1nnn2c1nc(NC1CCCCCC1)c1sccc12	inconclusive: 158 µM [inhibitor, partial curve, poor fit]
COc1ccccc1-c1noc(CSc2nnc(Cc3ccccc3)n2-c2ccc(C)c(C)c2)n1	inconclusive: 0.708 µM [inhibitor, full curve, poor fit]
O=C(CN1C(=O)CSc2ccccc21)Nc1ccc2c(c1)OCCO2	inactive
CCN1CCN(C(c2cccc(F)c2)c2c(O)cc(C)n(CCOC)c2=O)CC1 (stereo not drawn)	inconclusive: 141 µM [inhibitor, partial curve, poor fit]
COc1ccc(CN(Cc2nc3ccccc3c(=O)[nH]2)C(=O)NC2CCCCC2)cc1	inactive
C[C@]12CC[C@H](O)CC1=CCC1C2CC[C@@]2(C)C1CC[C@@H]2NC(=O)[C@@H](N)Cc1ccccc1 (stereo partly drawn)	inconclusive: 7.94 µM [inhibitor, partial curve, poor fit]
CC1CCc2onc(C(=O)N3CCN(c4ccccc4)CC3)c2C1 (stereo not drawn)	inactive
CN1CCN(c2oc(Cc3cccc4ccccc34)nc2C#N)CC1	inconclusive: 56.2 µM [inhibitor, partial curve, poor fit]
C/C=C(\C)C(=O)NCCN1C2=NC[C@@H](Cc3ccccc3)N2C[C@@H]1Cc1ccc(OC)cc1	inconclusive: 7.94 µM [inhibitor, partial curve]
Cc1nc(N2CCOCC2)c2c(C(=O)N3CCN(c4ccccc4F)CC3)c(C)oc2n1	inconclusive: 44.7 µM [inhibitor, single point]
Cn1c(SCc2ccccc2F)nnc1-c1cnccn1	inactive
Cc1cnc(N)nc1-c1ccccc1	inactive
CCC(=O)OCc1c(C(F)(F)F)nn(C)c1Sc1ccc(F)cc1	inactive
CC1(C)CC(=O)C2=C(C1)OC(N)=C(C#N)C2c1cc2c(cc1[N+](=O)[O-])OCO2 (stereo not drawn)	inconclusive: 2 µM [inhibitor, partial curve]
O=C(NC1CCSC1=O)C1CC(=O)N(c2ccc(F)cc2)C1 (stereo not drawn)	inconclusive: 28.2 µM [inhibitor, partial curve]
O=C(COC(=O)c1ccc([N+](=O)[O-])o1)Nc1ccc(F)cc1	inconclusive: 44.7 µM [inhibitor, partial curve, poor fit]
COc1ccc(CCNC(=O)Cc2c(C)c3cc4c(C(C)(C)C)coc4c(C)c3oc2=O)cc1OC	inconclusive: 0.631 µM [inhibitor, full curve, poor fit]

SMILES	Potency
COC(=O)c1cc(NC(=O)CCc2c(C)nc3c(c(C)nn3C(C)(C)C)c2C)cc(C(=O)OC)c1	inconclusive: 12.6 µM [inhibitor, partial curve, poor fit]
O=C(Cn1cc(C(=O)C2CC2)c2ccccc21)Nc1ccc(F)cc1	inconclusive: 39.8 µM [inhibitor, single point]
CCN(CC)C(=O)Cn1c(=O)n(-c2ccc(Cl)c(Cl)c2)c(=O)c2c(C)c(C(=O)N(CC)CC)sc21	inconclusive: 50.1 µM [inhibitor, partial curve, poor fit]
Fc1ccc(Br)cc1C1C=C(c2ccc(Br)s2)Nc2ncnn21 (stereo not drawn)	inconclusive: 35.5 µM [inhibitor, partial curve, poor fit]
COc1ccc(-n2nc3c(N4CCC(C(=O)NCc5cccc(F)c5)CC4)nnc(C)c3c2C)cc1	inconclusive: 44.7 µM [inhibitor, partial curve]
O=[N+]([O-])c1ccccc1/C=C/CN1CCCCC1CO (stereo not drawn)	inactive
CC[C@@]12C(=O)N(c3cccc(F)c3)C(=O)N1[C@H](c1cccc(C)c1)[C@@H]1C(=O)N(Cc3ccccc3)C(=O)[C@@H]12	inconclusive: 0.251 µM [inhibitor, full curve, poor fit]
COc1ccc(C2C=C(c3ccc(F)cc3)Nc3nc(-c4ccc(Cl)cc4)nn32)cc1 (stereo not drawn)	inconclusive: 44.7 µM [inhibitor, single point]
COc1cccc(Cc2nc3ccccc3nc2SCC(=O)NCCc2ccccc2)c1	inconclusive: 31.6 µM [inhibitor, partial curve]
COc1ccc(NC(=O)c2ccc3c(c2)N(Cc2cccc(Cl)c2)C(=O)c2ccccc2S3=O)cc1Cl (stereo not drawn)	inconclusive: 3.16 µM [inhibitor, full curve, poor fit]
Cc1ccc(C(CCN(Cc2ccccc2)C(=O)c2ccco2)c2ccco2)cc1 (stereo not drawn)	inactive
Cn1cc(CN2CCCCC2CO)c(-c2ccc(Oc3ccccc3)cc2)n1 (stereo not drawn)	inconclusive: 14.1 µM [inhibitor, partial curve]
O=S(=O)(c1ccccc1)N1CCCCC1CCc1ccccc1 (stereo not drawn)	inactive
COC(=O)CCC(=O)OC1(C)C(=O)C2=CN(c3ccccc3)C(c3ccc(OC)cc3)=CC2=C(Br)C1=O (stereo not drawn)	inconclusive: 31.6 µM [inhibitor, single point]
O=C(Nc1ccc(O)cc1)c1ccccc1OCc1ccccc1	inconclusive: 28.2 µM [inhibitor, partial curve]
CCC(=O)c1ccc(OCC(O)Cn2nc(C)cc2C)cc1 (stereo not drawn)	inactive
COc1ccc(/C=C2\SC(=S)N(CCCC(=O)Nc3ccccn3)C2=O)cc1OC	inconclusive: 31.6 µM [inhibitor, single point]
Cc1ccc2c(CNCC(C)c3ccccc3)c(C(=O)O)n(Cc3ccccc3C)c2c1 (stereo not drawn)	inconclusive: 0.282 µM [inhibitor, full curve]
Fc1ccc(-c2nnc(CN3CCN(c4ncc(C(F)(F)F)cc4Cl)CC3)o2)cc1	inconclusive: 56.2 µM [inhibitor, partial curve, poor fit]
CCc1ccc(NC(=S)NC(=O)c2c(-c3ccccc3Cl)noc2C)cc1	inconclusive: 7.08 µM [inhibitor, partial curve, poor fit]
O=C(CN1CCN(C(=O)CCC(=O)N2CCC(c3ccccc3)=N2)CC1)Nc1ccc(F)cc1	inactive
